Assay results taken from paper PMC5131486.

Biological target: T1, mouse IRF3, V5-tagged (mouse) (UniProt P70671)
T1 sequence: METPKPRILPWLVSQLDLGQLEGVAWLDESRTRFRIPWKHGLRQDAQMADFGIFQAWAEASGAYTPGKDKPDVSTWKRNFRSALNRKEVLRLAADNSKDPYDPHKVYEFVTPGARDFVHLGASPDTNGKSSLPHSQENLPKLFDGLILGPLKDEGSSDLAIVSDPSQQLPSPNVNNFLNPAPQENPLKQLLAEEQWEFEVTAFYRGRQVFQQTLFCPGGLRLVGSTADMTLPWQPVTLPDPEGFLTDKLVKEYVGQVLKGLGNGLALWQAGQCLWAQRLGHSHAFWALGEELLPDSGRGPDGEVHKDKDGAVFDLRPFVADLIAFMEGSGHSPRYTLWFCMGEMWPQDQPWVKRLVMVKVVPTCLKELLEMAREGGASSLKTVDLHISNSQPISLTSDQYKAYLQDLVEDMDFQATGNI
Test: co-IP; MEF cells transiently transfected with V5-IRF3 and FLAG-NS1; MG132 added to the culture to stabilize the substrate; IP with mouse anti-V5 antibody on protein A-Sepharose, immunoblot with mouse anti-FLAG antibody

“Pneumonia Virus of Mice (PVM) nonstructural protein 1, FLAG-tagged” was tested, and the binding was “binds”.

Results are given in words; binding and its absence hold for the method and conditions named. Binding seen in cells or lysates may run through a third protein. Binding calls can cover weak binding; strength is not graded here. Where a sequence is shown, tags or fusion partners need not be part of it.
